Data as given in PubChem BioAssay AID330 (DTP/NCI, 2004).
The list shows only some results of the screen, not a fair sample: it gathers some chemical classes. Not every dose and run of a compound is shown. T/C gives the treated animals as a percentage of the vehicle group. Some doses have a count of surviving animals in place of a T/C: the source holds a T/C of zero for them, seemingly a mark for toxic or unscored doses. Some doses without a T/C left all or most animals alive at the check, yet need not have been tolerated: the source hardly ever lists a survival T/C far under the control, and the zero likely stands for such cases as well. Counts of survivors are from the toxicity check (mostly the fifth day) where no day follows; animals may have died later. Schedule codes are those of the source, taken here to give the interval after Q, in days (D) or hours (H), and the number of doses after X. Where survival is the endpoint, the PubChem record calls one and a half times the control and up active, and a quarter to a half above the control has no call in these data; cut-offs in other NCI protocols can differ. Some entries hold several experiments; their values stand side by side, smallest first. Some T/C values are marked as having no survivor count here; that says nothing about deaths at the dose.

Tested on: P388 leukemia ip, CD2F1 mice, survival T/C
Test: NCI In Vivo Anticancer Drug Screen. Data for tumor model P388 Leukemia (intraperitoneal) in CD2F1 (CDF1) mice
Conditions: T/C endpoint: median survival time, higher T/C = longer survival
[1] = dose: 25.0 mg/kg/injection, schedule: Q01DX009 (ip), vehicle: saline with Tween-80
[2] = dose: 50.0 mg/kg/injection, schedule: Q01DX009 (ip), vehicle: saline with Tween-80
[3] = dose: 100.0 mg/kg/injection, schedule: Q01DX009 (ip), vehicle: saline with Tween-80
[4] = dose: 6.25 mg/kg/injection, schedule: Q01DX009 (ip), vehicle: saline with Tween-80
[5] = dose: 12.5 mg/kg/injection, schedule: Q01DX009 (ip), vehicle: saline with Tween-80
[6] = dose: 16.5 mg/kg/injection, schedule: Q04DX003 (ip), vehicle: saline with Tween-80
[7] = dose: 37.5 mg/kg/injection, schedule: Q04DX003 (ip), vehicle: saline with Tween-80
[8] = dose: 6.25 mg/kg/injection, schedule: Q01DX009 (ip), vehicle: saline
[9] = dose: 12.5 mg/kg/injection, schedule: Q01DX009 (ip), vehicle: saline
[10] = dose: 25.0 mg/kg/injection, schedule: Q01DX009 (ip), vehicle: saline
[11] = dose: 18.75 mg/kg/injection, schedule: Q04DX003 (ip), vehicle: Klucel (hydroxypropylcellulose) (HPC)

O=P(N(CCCl)CCCl)(N1CC1)N1CC1
T/C [1]: 113 % of control [survivor count not shown]
T/C [2]: 127 % of control [survivor count not shown]
T/C [3]: 136 [survivor count not shown] and 141 % of control [survivor count not shown]
T/C (dose: 100.0 mg/kg/injection, schedule: Q04DX003 (ip), vehicle: saline with Tween-80): 112 % of control [survivor count not shown]
T/C (dose: 200.0 mg/kg/injection, schedule: Q04DX003 (ip), vehicle: saline with Tween-80): 137 % of control [survivor count not shown]
T/C (dose: 400.0 mg/kg/injection, schedule: Q04DX003 (ip), vehicle: saline with Tween-80): 158 % of control [survivor count not shown]

ClCCN(CCCl)c1cccc(CN2CCOCC2)c1
T/C (dose: 50.0 mg/kg/injection, schedule: Q04DX003 (ip), vehicle: Klucel (hydroxypropylcellulose) (HPC)): 116 % of control [survivor count not shown]
T/C (dose: 100.0 mg/kg/injection, schedule: Q04DX003 (ip), vehicle: Klucel (hydroxypropylcellulose) (HPC)): 122 % of control [survivor count not shown]
T/C (dose: 200.0 mg/kg/injection, schedule: Q04DX003 (ip), vehicle: Klucel (hydroxypropylcellulose) (HPC)): 136 % of control [survivor count not shown]

Oc1ccc(Cl)cc1CN(CCCl)CCCl
T/C (dose: 3.13 mg/kg/injection, schedule: Q04DX003 (ip), vehicle: saline with Tween-80): 123 % of control [survivor count not shown]
T/C [4]: 136 % of control [survivor count not shown]
T/C (dose: 6.25 mg/kg/injection, schedule: Q04DX003 (ip), vehicle: saline with Tween-80): 133 % of control [survivor count not shown]
T/C [5]: 90 % of control [survivor count not shown]
T/C (dose: 12.5 mg/kg/injection, schedule: Q04DX003 (ip), vehicle: saline with Tween-80): 152 % of control [survivor count not shown]
T/C [6]: 140 % of control [survivor count not shown]
T/C [7]: 145 % of control [survivor count not shown]

OCC#CCN(CCCl)CCCl
T/C (dose: 0.4 mg/kg/injection, schedule: Q04DX003 (ip), vehicle: saline with Tween-80): 118 % of control [survivor count not shown]
T/C (dose: 0.75 mg/kg/injection, schedule: Q04DX003 (ip), vehicle: saline with Tween-80): 122 % of control [survivor count not shown]
T/C (dose: 0.9 mg/kg/injection, schedule: Q04DX003 (ip), vehicle: saline): 185 % of control [survivor count not shown]
T/C (dose: 1.5 mg/kg/injection, schedule: Q04DX003 (ip), vehicle: saline with Tween-80): 145 % of control [survivor count not shown]
T/C (dose: 1.5 mg/kg/injection, schedule: Q04DX003 (ip), vehicle: saline): 205 % of control [survivor count not shown]
T/C (dose: 2.25 mg/kg/injection, schedule: Q04DX003 (ip), vehicle: saline): 205 % of control [survivor count not shown]

CC(C)(C)N=S=NP(=O)(F)F
T/C [4]: 107 % of control
T/C [5]: 106 % of control
T/C [1]: 104 % of control

O=C(O)CCCCc1ccc(N(CCCl)CCCl)cc1
T/C (dose: 3.0 mg/kg/injection, schedule: Q01DX009 (ip), vehicle: saline with Tween-80): 109 % of control [survivor count not shown]
T/C (dose: 6.0 mg/kg/injection, schedule: Q01DX009 (ip), vehicle: saline with Tween-80): 122 % of control [survivor count not shown]
T/C (dose: 12.0 mg/kg/injection, schedule: Q01DX009 (ip), vehicle: saline with Tween-80): 145 % of control [survivor count not shown]
T/C [5]: 150 % of control [survivor count not shown]
T/C [6]: 127 % of control [survivor count not shown]
T/C [1]: 195 % of control [survivor count not shown]
T/C (dose: 25.0 mg/kg/injection, schedule: Q04DX003 (ip), vehicle: saline with Tween-80): 136 % of control [survivor count not shown]
T/C [7]: 159 % of control [survivor count not shown]

NCCN(CCCl)CCCl
T/C (dose: 0.25 mg/kg/injection, schedule: Q01DX005 (ip), vehicle: saline): 168 and 172 % of control
T/C (dose: 0.5 mg/kg/injection, schedule: Q01DX005 (ip), vehicle: saline): 168 and 221 % of control
T/C (dose: 0.67 mg/kg/injection, schedule: Q01DX005 (ip), vehicle: saline): 191 % of control
T/C (dose: 1.0 mg/kg/injection, schedule: Q01DX005 (ip), vehicle: saline, evaluated on day 30): 178, 188, 241 % of control
T/C (dose: 1.0 mg/kg/injection, schedule: Q01DX005 (ip), vehicle: saline, evaluated on day 60): 191, 225, 227 % of control
T/C (dose: 1.5 mg/kg/injection, schedule: Q01DX005 (ip), vehicle: saline): 257, 277, 323 % of control
T/C (dose: 2.0 mg/kg/injection, schedule: Q01DX005 (ip), vehicle: saline): 86, 241, 267 % of control
T/C (dose: 2.2 mg/kg/injection, schedule: Q01DX005 (ip), vehicle: saline): 273 and 336 % of control

C1CCNCC1.O=C(O)C(O)c1ccc(N(CCCl)CCCl)cc1 (stereo not given)
T/C (dose: 12.5 mg/kg/injection, schedule: Q01DX009 (ip), vehicle: Klucel (hydroxypropylcellulose) (HPC)): 141 % of control [survivor count not shown]
T/C (dose: 25.0 mg/kg/injection, schedule: Q01DX009 (ip), vehicle: Klucel (hydroxypropylcellulose) (HPC)): 150 % of control [survivor count not shown]
T/C (dose: 50.0 mg/kg/injection, schedule: Q01DX009 (ip), vehicle: Klucel (hydroxypropylcellulose) (HPC)): 184 [survivor count not shown] and 192 % of control [survivor count not shown]

CCOC(=O)N1CCC(=O)CC1
T/C (dose: 25.0 mg/kg/injection, schedule: Q01DX009 (ip), vehicle: other): 106 % of control [survivor count not shown]
T/C (dose: 50.0 mg/kg/injection, schedule: Q01DX009 (ip), vehicle: other): 100 % of control [survivor count not shown]
T/C (dose: 100.0 mg/kg/injection, schedule: Q01DX009 (ip), vehicle: other): 99 % of control [survivor count not shown]
T/C (dose: 200.0 mg/kg/injection, schedule: Q01DX009 (ip), vehicle: other): 103 % of control [survivor count not shown]

NP(=O)(OCc1ccccc1)N(CCCl)CCCl (stereo not given)
T/C [8]: 113 % of control [survivor count not shown]
T/C [9]: 113 % of control [survivor count not shown]
T/C [1]: 109 % of control [survivor count not shown]
T/C [10]: 145 % of control [survivor count not shown]
T/C [2]: 122 % of control [survivor count not shown]
T/C [3]: 136 % of control [survivor count not shown]

CC(C)(C)[Si](C)(C)N(CCCl)CCCl
T/C (dose: 4.68 mg/kg/injection, schedule: Q04DX003 (ip), vehicle: Klucel (hydroxypropylcellulose) (HPC)): 130 % of control
T/C (dose: 9.37 mg/kg/injection, schedule: Q04DX003 (ip), vehicle: Klucel (hydroxypropylcellulose) (HPC)): 145 and 153 % of control
T/C [11]: 171 % of control
survivor count [11]: 5 of 6
survivor count (dose: 37.5 mg/kg/injection, schedule: Q04DX003 (ip), vehicle: Klucel (hydroxypropylcellulose) (HPC)): 4 of 6
survivor count (dose: 75.0 mg/kg/injection, schedule: Q04DX003 (ip), vehicle: Klucel (hydroxypropylcellulose) (HPC)): 2 of 6
survivor count (dose: 150.0 mg/kg/injection, schedule: Q04DX003 (ip), vehicle: Klucel (hydroxypropylcellulose) (HPC)): 1 of 6
survivor count (dose: 300.0 mg/kg/injection, schedule: Q04DX003 (ip), vehicle: Klucel (hydroxypropylcellulose) (HPC)): 0 of 6

CCCCC#CCN(CCCl)CCCl
T/C [8]: 155 % of control [survivor count not shown]
T/C [9]: 128 % of control [survivor count not shown]
T/C [10]: 146 [survivor count not shown] and 166 % of control [survivor count not shown]
